# Experimental data taken from PMC2999431.
# These are yes or no findings as the source states them, for the method shown. In cells and extracts the contact can be indirect. A result given as binding can be weak or reduced; the word gives no strength. Where a sequence is shown, tags or fusion partners need not be part of it.
# B1: Manduca sexta hemolin, epitope-tagged recombinant form (protein, UniProt P31398 19-413)
# chain: QPVEKMPVLKDQPAEVLFRESQATVLECVTENGDKDVKYSWQKDGKEFKWQEHNIAQRKDEGSLVFLKPEAKDEGQYRCFAESAAGVATSHIISFRRTYMVVPTTFKTVEKKPVEGSWLKLECSIPEGYPKPTIVWRKQLGEDESIADSILARRITQSPEGDLYFTSVEKEDVSESYKYVCAAKSPAIDGDVPLVGYTIKSLEKNTNQKNGELVPMYVSNDMIAKAGDVTMIYCMYGGVPMAYPNWFKDGKDVNGKPSDRITRHNRTSGKRLFIKETLLEDQGTFTCDVNNEVGKPQKHSVKLTVVSGPRFTKKPEKQVIAKQGQDFVIPCEVSALPAAPVSWTFNAKPISGSRVVASPSGLTIKGIQKSDKGYYGCQAHNEHGDAYAETLVIVA
# Legend:
# [1] = target: Cotesia congregata bracovirus CcV1 protein, epitope-tagged recombinant form (Cotesia congregata bracovirus); assay: co-IP; co-immunoprecipitation employing the recombinant epitope-tagged proteins expressed in lepidopteran cells
# [2] = target: Cotesia congregata bracovirus CcV1 protein, epitope-tagged recombinant form (Cotesia congregata bracovirus); assay: cross-linking; chemical cross-linking employing the recombinant epitope-tagged proteins expressed in lepidopteran cells
binder,measurement,setting,value
B1,binding,[1],binds
same,binding,[2],binds
